# Inconclusive means that the source gave no clear call. Such entries were picked first, then a sample of the others. Where the call is inconclusive, the potency comes from a doubtful curve fit. Active and inactive are the calls of the source. The call rests on the fitted dose curve; in most records, active means well fitted cell-killing curve with a large enough effect in the repeat runs; inconclusive means weak or mixed curves, or effect the other way; inactive means flat fitted curve, though single readings scatter.
# Assay: cAMP Responsive Elements (CRE) small molecule agonists, cell-based qHTS assay: qHTS cell viability counter screen (AID 2060914); further: nearly all actives have a fitted effect of over 50% in size
# Conditions: CRE-bla HEK293T viability, CellTiter-Glo luminescence, 5 h; series mostly up to 92.4 µM; activity change, negative = cytotoxicity: at the top concentration
# Outline: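 Cytotoxicity counter screen multiplexed with the CRE-bla reporter assay in HEK 293T cells: 3 h compound exposure at 37 °C, followed by CellTiter-Glo luminescence measured in the same wells.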
# On the % scale 0 is the no-effect control and ±100 the full control effect; potency means the concentration at half of the fitted maximal effect.
Structure (SMILES),Potency,"activity change, negative = cytotoxicity"
CC(C)(C)C1=CC(=O)C=C(C(C)(C)C)C1=O,"inconclusive: 611 nM [cytotoxic, single point]",–
CC/C=C\CCCCCCCCCCOC(C)=O,"inconclusive: 217 nM [cytotoxic, single point]",–
CCn1cc(C(=O)O)c(=O)c2cc3c(cc21)OCO3,"inconclusive: 146 nM [cytotoxic, single point]",–
O=C(c1ccc(O)c(O)c1)c1ccc(O)cc1O,–,inactive: 8.25%
Cc1ccc2c(c1)C(=O)c1ccccc1C2=O,"inconclusive: 13600 nM [cytotoxic, single point]",–
NC(=O)c1ccc([N+](=O)[O-])cc1Cl,inactive,–
CCC(O)OCCCOC (configuration not stated),"inconclusive: 627 nM [cytotoxic, single point]",–
COc1ccc(C(=O)NCc2ccc(OCCN(C)C)cc2)cc1OC,"inconclusive: 668 nM [cytotoxic, single point]",–
Cc1cn([C@@H]2O[C@H](CO)[C@@H](O)[C@@H]2F)c(=O)[nH]c1=O,"inconclusive: 33500 nM [cytotoxic, single point]",–
CC[C@H]1OC(=O)[C@H](C)[C@@H](O[C@H]2C[C@@](C)(OC)[C@@H](O)[C@H](C)O2)[C@H](C)[C@@H](O[C@@H]2O[C@H](C)C[C@H](N(C)C)[C@H]2O)[C@](C)(O)C[C@@H](C)/C(=N\OCOCCOC)[C@H](C)[C@@H](O)[C@]1(C)O,active: 36000 nM,–
Cc1cccc(Cl)c1,"inconclusive: 1370 nM [cytotoxic, single point]",–
CCCCCCCC/C=C\CCCCCCCC(=O)N(C)CC(=O)O,–,inactive: -7.16%

# Random excerpt: two compounds from above.
Structure (SMILES),Potency,"activity change, negative = cytotoxicity"
Cc1cn([C@@H]2O[C@H](CO)[C@@H](O)[C@@H]2F)c(=O)[nH]c1=O,"inconclusive: 33500 nM [cytotoxic, single point]",–
CCn1cc(C(=O)O)c(=O)c2cc3c(cc21)OCO3,"inconclusive: 146 nM [cytotoxic, single point]",–
